Experimental data: PubChem BioAssay AID720513 (Broad Institute, 2013)
In all, about 2,100 compounds went through this assay and about 480 (23%) were called active. About 5% were inconclusive and are not listed. Only a part is listed here, and it is no random draw. Entries with a potency or affinity are not part of this list.

test: activators raising PGC1a acetylation in cells, dose response, cell-based, cherry-picked samples, set 6 (AID 720513); settings: U2OS PGC1a acetylation AlphaLISA, overnight; at 21 µM (top of the series)

Row | SMILES | activation (acetylation increase)
1 | C[C@@H]1CN([C@H](C)CO)C(=O)c2c(c3ccccc3n2C)-c2ccccc2CO[C@@H]1CN(C)C(=O)Oc1ccccc1 | inactive: 357%
